According to PMC11103130:
These are yes or no findings as the source states them, for the method shown. In cells and extracts the contact can be indirect. Some entries that bind do so weakly or less than the wild type. Sequences can lack the tags named with a protein.

By UniProt entry, the sequences of proteins in these tests, tags left out.
UniProt P51608: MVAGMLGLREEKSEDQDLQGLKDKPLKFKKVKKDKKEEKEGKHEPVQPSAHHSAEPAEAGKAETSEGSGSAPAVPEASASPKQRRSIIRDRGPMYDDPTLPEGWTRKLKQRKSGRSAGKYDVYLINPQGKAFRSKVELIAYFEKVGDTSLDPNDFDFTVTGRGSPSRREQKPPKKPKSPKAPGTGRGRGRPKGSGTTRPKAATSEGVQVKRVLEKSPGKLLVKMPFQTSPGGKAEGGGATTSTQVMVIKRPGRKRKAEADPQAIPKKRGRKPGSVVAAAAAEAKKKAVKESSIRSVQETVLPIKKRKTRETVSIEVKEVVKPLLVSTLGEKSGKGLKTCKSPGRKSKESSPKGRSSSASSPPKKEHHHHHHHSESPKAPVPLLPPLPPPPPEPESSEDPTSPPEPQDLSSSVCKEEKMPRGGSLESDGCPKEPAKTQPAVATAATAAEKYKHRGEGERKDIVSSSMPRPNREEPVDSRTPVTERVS

Assays:
Flag-SPESP1 = target: T1, Flag-SPESP1 (UniProt Q6UW49); assay: co-IP; semi-endogenous: Flag-SPESP1 with endogenous MeCP2; NP-40 IP lysis buffer with protease inhibitors, flag-coupled magnetic beads overnight at 4°C, washed three times with lysis buffer
T1 sequence: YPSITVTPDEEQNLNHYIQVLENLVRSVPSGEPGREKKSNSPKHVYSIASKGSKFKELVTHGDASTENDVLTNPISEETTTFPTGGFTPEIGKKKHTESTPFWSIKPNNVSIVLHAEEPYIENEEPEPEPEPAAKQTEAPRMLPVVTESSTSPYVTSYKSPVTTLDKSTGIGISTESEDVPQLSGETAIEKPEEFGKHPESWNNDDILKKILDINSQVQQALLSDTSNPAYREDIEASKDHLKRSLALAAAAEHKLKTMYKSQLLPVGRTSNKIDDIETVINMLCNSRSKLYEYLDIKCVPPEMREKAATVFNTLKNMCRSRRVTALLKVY

[1] = target: T2, sperm equatorial segment protein 1 (SPESP1), endogenous (human (endogenous; cells of this co-IP not named, HDFs or 293T)) (UniProt Q6UW49); assay: co-IP; endogenous co-immunoprecipitation of SPESP1 and MeCP2; cells and precipitating antibody not stated
T2 sequence: T1 sequence

methyl-CpG-binding protein 2 (MeCP2), endogenous (from UniProt P51608 1-486)
binding (Flag-SPESP1): binds | binding [1]: binds
